Experimental data: PubChem BioAssay AID587 (National Center for Advancing Translational Sciences (NCATS), 2007)
In all, about 59,000 compounds went through this assay and about 35 (0.06%) were called active. Inconclusive results, whose numbers are uncertain, are shown with a selection of clear calls. No stated cut-off is given here; in the data, active means max dye-equivalent concentration above about 10 nM; inconclusive means between about 1.1 nM and that limit; inactive means weaker than that.

Test: qHTS Assay for Spectroscopic Profiling in Texas Red Spectral Region
Conditions: Compound fluorescence, Texas Red channel, 547/618 nm; active compounds read high
Summary of the method: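 qHTS profiling of intrinsic compound fluorescence; 100 mM Tris pH 8.0; 15 min RT; ex 547 / em 618 nm; response expressed as Texas Red dye-equivalent concentration from six-point plate standard.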

| SMILES | max dye-equivalent concentration |
| --- | --- |
| Fc1ccc2c(c1)nnn2C1CCN(Cc2nnnn2CCc2ccccc2)CC1 | inconclusive: 1.2 nM |
| CP(=O)(O)CCCN | inconclusive: 1.2 nM |
| CCCCn1c(O)c(C(CC)=NCCCN(C)C)c(=O)[nH]c1=O | inconclusive: 1.6 nM |
| O=C(O)[C@@H](O)[C@@H](O)[C@@H]1[O][Sb][O][C@@H]1CO | inactive |
| O=C(CCCN1CCC2(CC1)C(=O)N(CCc1ccc(N=C=S)cc1)CN2c1ccccc1)c1ccc(F)cc1 | inactive |
| CCCCn1c(=O)c(C(=O)Nc2cnccn2)c(O)c2ccccc21 | inconclusive: 1.1 nM |
| Cc1noc(C)c1C(=O)N1CCC2(CC1)OCCO2 | inconclusive: 3.1 nM |
| N[C@H]1C[C@H]1c1ccccc1 | inconclusive: 1.2 nM |
| COc1ccc(CC2C(=O)NC(=O)NC2=O)c(OC)c1 | inconclusive: 1.1 nM |
| COc1ccc(CCn2c(O)c(C=NCc3ccc4c(c3)OCO4)c(=O)[nH]c2=O)cc1OC | inconclusive: 1.1 nM |
| COc1ccc(C[C@H]2c3cc(OC)c(OC)cc3CCN2C)cc1OC | inconclusive: 1.2 nM |
| CCN1C(=O)c2ccccc2Sc2ccc(C(=O)N3CCC4(CC3)OCCO4)cc21 | inconclusive: 1.1 nM |
| CCOC(=O)c1c(C)n(CCOC)c2ccc(O)cc12 | inconclusive: 1.5 nM |
| CC1=CC(C)C(COC(N)=O)(COC(N)=O)C(C)C1 (stereo not drawn) | inconclusive: 1.2 nM |
| Cc1cccc(-n2c(O)c(C=NCCCN3CCOCC3)c(=O)[nH]c2=O)c1C | inactive |
| C[C@H](NC(C)(C)C)C(=O)c1cccc(Cl)c1 | inconclusive: 1.4 nM |
| COc1ccc(-n2c(O)c(C(C)=NCCN3CCNCC3)c(=O)[nH]c2=O)cc1 | inconclusive: 1.9 nM |
| O=C(O)[C@H]1[O][Sb][O][C@@H](C(=O)O)C1O (stereo partly drawn) | inactive |
| COc1cccc(N2C(=O)NC(=O)C3(Cc4cc(C)ccc4N(C)C3)C2=O)c1 (stereo not drawn) | inconclusive: 1.1 nM |
| CCc1c(C(=O)OC)ncc2[nH]c3cc(OC)c(OC)cc3c12 | inactive |
| CCCNC(=O)c1c(N)n(CC2CCCO2)c2nc3ccccc3nc12 (stereo not drawn) | inconclusive: 1.6 nM |
| Nc1ccc(CCN2CCN(c3cccc(C(F)(F)F)c3)CC2)cc1 | inconclusive: 3.6 nM |
| Nc1ccc(C2(c3ccc(N)cc3)CN3CCC2CC3)cc1 | inconclusive: 1.8 nM |
| CC(=O)NCCc1c[nH]c2ccccc12 | inconclusive: 1.3 nM |
| O=C(CN1C(=O)CN=C(c2ccccc2Cl)c2cc(Cl)ccc21)NCc1ccco1 | inconclusive: 2.1 nM |
| C#C[C@@]1(O)CC[C@@H]2[C@@H]3CCC4=CC(=O)CC[C@@]4(C)[C@H]3CC[C@]21C | inconclusive: 1.2 nM |
| CC(=O)N(C1=NCCCS1)c1ccccc1F | inconclusive: 1.1 nM |

| SMILES | max dye-equivalent concentration |
| --- | --- |
| CCn1c(C(=O)N2CCC(C(=O)N3CCC4(CC3)OCCO4)CC2)cc2sccc21 | inconclusive: 2.2 nM |
| Cc1ccccc1NC1=NCC(C)S1 (stereo not drawn) | inconclusive: 1.1 nM |
| CCSc1cc(C2C(C#N)=C(N)Oc3n[nH]c(C)c32)c(C)o1 (stereo not drawn) | inconclusive: 2.1 nM |
| O=C(O)CN1CCN(CC(=O)O)CC(=O)[O][Hg][O]C(=O)C1 | inactive |
| CC(C)c1cccc(C(C)C)c1OCCn1ccnc1 | inconclusive: 1.1 nM |
| CN[C@H]1[C@H](C)O[C@@H](O[C@@H]2C/C=C(/C)C/C(C)=C\C=C/CC[C@@H](C)CNC(=O)/C=C\C=C/[C@H]2C)C[C@@H]1O | inconclusive: 1.1 nM |
| CN(C)CCOC(=O)c1cn(Cc2ccccc2)c2ccccc12 | inconclusive: 1.1 nM |
| C[C@@]12CC[C@H]3[C@@H](CC[C@@H]4C[C@H](O)CC[C@]43C)[C@H]1CC[C@H]2O | inactive |
| CCCC[N+]1(C)[C@@H]2CC(OC(=O)[C@@H](CO)c3ccccc3)C[C@H]1[C@H]1O[C@H]12 (stereo partly drawn) | inactive |
| CC(C)[C@]1(NC(=O)[C@H]2C=C3c4cccc5[nH]cc(c45)C[C@H]3N(C)C2)O[C@@]2(O)[C@H]3CCCN3C(=O)[C@H](Cc3ccccc3)N2C1=O | inactive |
| CC(C)Sc1nnc([C@@H](N)Cc2c[nH]c3ccccc23)o1 | inconclusive: 1.8 nM |
| NCCc1c[nH]c2ccc(C(N)=O)cc12 | inconclusive: 1.1 nM |
| COC(=O)CSC1=NP(=S)(SCC(=O)OC)N2CCCC2=C1C#N (stereo not drawn) | inconclusive: 1.6 nM |
| CC[C@H](CO)NC(=O)[C@H]1C=C2c3cccc4[nH]cc(c34)C[C@@H]2N(C)C1 | inactive |
| NC12CN3CN(CN(C3)C1)C2 (tested in a mixture with another compound) | inconclusive: 1.1 nM |
| CN1C(=O)CCS(=O)(=O)[C@@H]1c1ccc(Cl)cc1 | inconclusive: 1.2 nM |
| c1ccc2c(c1)[nH]c1cnccc12 | inactive |
| CCN(CC)C(=O)c1ccc(NC(=O)c2cc(-n3cnnc3)ccc2Cl)cc1 | inconclusive: 1.3 nM |
| N[C@H](Cc1ccc2oc3cc(=O)c4ccccc4c-3nc2c1)C(=O)O | active: 47 nM |
| CC(C)[C@@]1(NC(=O)[C@@H]2C[C@H]3c4cccc5[nH]cc(c45)C[C@@H]3N(C)C2)O[C@]2(O)[C@H]3CCCN3C(=O)[C@H](Cc3ccccc3)N2C1=O | inconclusive: 1.4 nM |
| C[C@H]1CC[C@@]2(NC1)O[C@@H]1C[C@H]3[C@@H]4CC[C@@H]5C[C@@H](O)CC[C@@]5(C)[C@@H]4CC[C@]3(C)[C@@H]1[C@@H]2C | inconclusive: 1.3 nM |
| NC(N)=NCCN=C(N)N | inconclusive: 1.5 nM |
| C=CCN1CC[C@@]23CCCC[C@@H]2[C@@H]1Cc1ccc(O)cc13 | inactive |
| O=c1[nH]c(=O)n(CCc2ccccc2)c(O)c1C=NCCN1CCNCC1 | inconclusive: 1.3 nM |
| O=C(CCCN1CCC(n2c(=O)[nH]c3ccccc32)CC1)c1ccc(F)cc1 | inconclusive: 1.8 nM |
| COCCOC(=O)c1c(N)n(Cc2ccco2)c2nc3ccccc3nc12 | inactive |

Rewritten field by field: entries from further up.
CN1C(=O)CCS(=O)(=O)[C@@H]1c1ccc(Cl)cc1
  max dye-equivalent concentration: inconclusive: 1.2 nM
CCN(CC)C(=O)c1ccc(NC(=O)c2cc(-n3cnnc3)ccc2Cl)cc1
  max dye-equivalent concentration: inconclusive: 1.3 nM
O=c1[nH]c(=O)n(CCc2ccccc2)c(O)c1C=NCCN1CCNCC1
  max dye-equivalent concentration: inconclusive: 1.3 nM
